Results from paper doi:10.1101/814285.
These are yes or no findings as the source states them, for the method shown. Binding seen in cells or lysates may run through a third protein. Where a sequence is shown, tags or fusion partners need not be part of it.

The chains behind the UniProt entries cited, without tags or fusion partners.
UniProt P04406: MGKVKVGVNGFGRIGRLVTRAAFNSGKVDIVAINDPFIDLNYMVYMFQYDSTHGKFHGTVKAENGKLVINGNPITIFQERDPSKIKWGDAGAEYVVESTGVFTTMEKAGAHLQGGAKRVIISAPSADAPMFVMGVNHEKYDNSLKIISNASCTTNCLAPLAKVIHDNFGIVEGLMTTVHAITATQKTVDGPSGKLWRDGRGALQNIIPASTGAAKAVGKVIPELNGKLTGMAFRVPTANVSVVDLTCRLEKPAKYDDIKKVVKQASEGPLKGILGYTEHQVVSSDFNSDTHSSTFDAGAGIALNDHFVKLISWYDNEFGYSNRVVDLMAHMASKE

Biological target: T1, FLAG-UBR7 (wild-type human UBR7 with FLAG tag) (human) (UniProt Q8N806)
T1 sequence: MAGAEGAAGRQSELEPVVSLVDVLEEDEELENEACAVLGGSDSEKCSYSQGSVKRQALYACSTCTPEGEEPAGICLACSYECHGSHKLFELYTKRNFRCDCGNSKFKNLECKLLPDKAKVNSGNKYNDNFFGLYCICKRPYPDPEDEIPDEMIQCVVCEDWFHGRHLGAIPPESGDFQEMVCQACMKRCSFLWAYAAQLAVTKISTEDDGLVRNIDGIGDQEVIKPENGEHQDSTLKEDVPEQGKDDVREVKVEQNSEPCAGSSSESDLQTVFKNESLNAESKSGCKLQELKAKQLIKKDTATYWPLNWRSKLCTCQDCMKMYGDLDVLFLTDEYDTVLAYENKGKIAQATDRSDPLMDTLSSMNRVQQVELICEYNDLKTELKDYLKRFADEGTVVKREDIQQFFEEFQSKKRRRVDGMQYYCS
Assay: co-IP

## GAPDH (from UniProt P04406 1-335)
  binding: no binding
